Results deposited as PubChem BioAssay AID652259 (Drosophila RNAi Screening Center, 2013).
Aim: 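Knock-downs that push a Wingless-driven reporter up or down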 (primary screen). Cell system: Drosophila clone 8 imaginal disc epithelial cells. Reagent: long dsRNA against Drosophila genes. Challenge: pathway stimulated by co-transfected Wingless expression plasmid. Detection: 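Dual luciferase reads per well after Wingless plasmid stimulation: reporter firefly light and Renilla control light; activity is firefly divided by Renilla, a ratio not deposited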. Scale: firefly reporter light: higher = more Wg reporter light, before normalisation; Renilla control light: higher = more transfected or surviving cells. Call rule: 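a knock-down is a candidate when at least two out of four statistical tests show it departing from its plate mean; one test alone signals a weak candidate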. Meaning of the calls: active = candidate regulator (raises or lowers reporter); inactive = not a candidate.
The screen tested about 22,000 reagents; below is a random part of those with a known target gene and a result. Over the whole deposit, 233 (1.1%) are marked active. 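Light values are raw, unnormalised plate reads; the ratio scores behind the reporter calls were not deposited.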 Unmarked entries are inactive. A plus sign joins genes that one reagent is predicted to hit. Reagent sequences are not shown. Not given: the amount of reagent, the time to read-out, the dose of the treatment.

CG43110 [DRSC05661] → firefly reporter light, replicate 1: 18780; Renilla control light, replicate 1: 12005
CG16741 [DRSC06622] → firefly reporter light, replicate 1: 13483; Renilla control light, replicate 1: 2602
CG10969 [DRSC09811] → firefly reporter light, replicate 1: 2880; Renilla control light, replicate 1: 1958
Fbxl7 (F-box and leucine-rich repeat protein 7) [DRSC15553] → firefly reporter light, replicate 1: 22132; Renilla control light, replicate 1: 5292
CG15198 [DRSC19645] → firefly reporter light, replicate 1: 19700; Renilla control light, replicate 1: 9916
msps (mini spindles) [DRSC17004] → firefly reporter light, replicate 1: 3930; firefly reporter light, replicate 2: 9974; Renilla control light, replicate 1: 752; Renilla control light, replicate 2: 2464
Sec63 (Secretory 63) [DRSC11002] → firefly reporter light, replicate 1: 1716; firefly reporter light, replicate 2: 9859; Renilla control light, replicate 1: 1635; Renilla control light, replicate 2: 3751
Vm34Ca (Vitelline membrane 34Ca) [DRSC03475] → firefly reporter light, replicate 1: 3772; firefly reporter light, replicate 2: 7872; Renilla control light, replicate 1: 1354; Renilla control light, replicate 2: 1906
Obp47b + CG7741 [DRSC06330] → reporter change call, replicate 1: Wg reporter activity raised; firefly reporter light, replicate 1: 10115; Renilla control light, replicate 1: 2899
Cpr62Ba (Cuticular protein 62Ba) [DRSC08403] → firefly reporter light, replicate 1: 5613; Renilla control light, replicate 1: 2435
Alg2 (ALG2, alpha-1,3/1,6-mannosyltransferase) [DRSC08298] → firefly reporter light, replicate 1: 4592; Renilla control light, replicate 1: 1429
CG3649 [DRSC04400] → firefly reporter light, replicate 1: 3804; firefly reporter light, replicate 2: 10292; Renilla control light, replicate 1: 697; Renilla control light, replicate 2: 4976
Pmm2 (Phosphomannomutase type 2) [DRSC09780] → firefly reporter light, replicate 1: 7641; Renilla control light, replicate 1: 2337
para (paralytic) [DRSC19141] → firefly reporter light, replicate 1: 3865; Renilla control light, replicate 1: 960
para (paralytic) [DRSC20360] → firefly reporter light, replicate 1: 20108; Renilla control light, replicate 1: 9209
Fsn (F-box synaptic protein) [DRSC06875] → firefly reporter light, replicate 1: 15159; Renilla control light, replicate 1: 4448
CG6149 [DRSC10593] → firefly reporter light, replicate 1: 5027; Renilla control light, replicate 1: 3068
